Assay results reported in paper PMC11193757.
These are yes or no findings as the source states them, for the method shown. Binding seen in cells or lysates may run through a third protein. Some results given as binding are weak or reduced against the parent protein; the word gives no strength.

Sequences of proteins named here, by UniProt entry; tags and fusion partners are left off.
UniProt O75150: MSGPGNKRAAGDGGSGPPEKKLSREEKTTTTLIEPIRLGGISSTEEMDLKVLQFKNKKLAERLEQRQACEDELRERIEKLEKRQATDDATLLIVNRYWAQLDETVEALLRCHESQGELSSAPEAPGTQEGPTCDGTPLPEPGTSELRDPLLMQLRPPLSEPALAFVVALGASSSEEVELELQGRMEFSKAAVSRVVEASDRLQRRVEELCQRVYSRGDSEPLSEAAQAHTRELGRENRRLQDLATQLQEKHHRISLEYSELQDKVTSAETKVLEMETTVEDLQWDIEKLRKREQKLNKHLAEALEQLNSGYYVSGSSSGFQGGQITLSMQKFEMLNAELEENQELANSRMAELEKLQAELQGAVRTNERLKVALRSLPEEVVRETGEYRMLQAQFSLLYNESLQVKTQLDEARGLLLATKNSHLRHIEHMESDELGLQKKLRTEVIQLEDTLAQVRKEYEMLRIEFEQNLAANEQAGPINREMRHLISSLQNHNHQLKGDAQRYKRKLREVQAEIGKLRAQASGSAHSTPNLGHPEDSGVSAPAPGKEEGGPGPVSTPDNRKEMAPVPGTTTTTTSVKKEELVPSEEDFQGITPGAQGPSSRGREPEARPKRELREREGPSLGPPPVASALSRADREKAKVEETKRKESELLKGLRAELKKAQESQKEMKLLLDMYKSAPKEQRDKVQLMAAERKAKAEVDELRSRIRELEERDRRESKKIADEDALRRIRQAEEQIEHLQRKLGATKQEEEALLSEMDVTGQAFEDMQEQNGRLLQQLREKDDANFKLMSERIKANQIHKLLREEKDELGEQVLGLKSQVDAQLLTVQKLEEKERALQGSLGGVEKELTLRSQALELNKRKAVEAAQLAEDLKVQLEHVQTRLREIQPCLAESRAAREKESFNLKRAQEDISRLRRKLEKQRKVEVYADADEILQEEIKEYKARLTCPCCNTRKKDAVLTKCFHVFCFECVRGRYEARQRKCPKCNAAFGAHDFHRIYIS
UniProt Q9UHB6: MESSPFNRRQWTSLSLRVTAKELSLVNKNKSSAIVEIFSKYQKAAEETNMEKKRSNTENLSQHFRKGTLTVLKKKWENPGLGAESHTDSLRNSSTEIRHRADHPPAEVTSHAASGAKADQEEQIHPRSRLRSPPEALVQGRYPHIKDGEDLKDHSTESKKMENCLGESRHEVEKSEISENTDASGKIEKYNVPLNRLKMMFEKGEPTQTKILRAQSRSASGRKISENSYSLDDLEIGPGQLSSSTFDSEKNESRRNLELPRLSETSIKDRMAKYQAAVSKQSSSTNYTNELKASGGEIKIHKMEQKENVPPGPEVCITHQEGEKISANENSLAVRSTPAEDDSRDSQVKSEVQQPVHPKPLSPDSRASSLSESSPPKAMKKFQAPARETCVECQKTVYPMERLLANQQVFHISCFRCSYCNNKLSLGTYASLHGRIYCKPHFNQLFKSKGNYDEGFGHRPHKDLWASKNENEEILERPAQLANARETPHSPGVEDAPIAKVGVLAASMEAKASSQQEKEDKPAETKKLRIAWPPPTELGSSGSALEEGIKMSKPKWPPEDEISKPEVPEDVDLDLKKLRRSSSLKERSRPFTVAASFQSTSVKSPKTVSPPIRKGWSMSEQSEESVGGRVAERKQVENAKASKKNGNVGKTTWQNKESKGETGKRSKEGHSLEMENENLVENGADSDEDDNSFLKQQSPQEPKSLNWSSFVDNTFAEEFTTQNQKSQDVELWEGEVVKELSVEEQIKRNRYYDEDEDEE

Biological target: endogenous RNF40 (human (endogenous in Hep3B)) (UniProt O75150)
Assay: co-IP; endogenous proteins in Hep3B cells; immunoprecipitation with an antibody against RNF40, LIMA1 detected by immunoblotting

binding: binds
Substance: endogenous LIMA1 (from UniProt Q9UHB6 1-759)
